According to patent publication US11472830B2:
For part of its entries the source gives two or more results. The other results are left out here. An entry can have further records. Values given together differ for a reason that is not stated; dose, time, organism, isomer or construct need not be as stated for each record.

System: primary human PBMC
Experiment: STING primary human PBMC cytokine induction assay
Details: 48 h, approximately 20 μM, relative to PBS, tested form: Na salt

## COC1C2COP(=O)(O)OC3C(COP(=O)(O)OC1C(n1cnc4c(=O)[nH]c(N)nc41)O2)OC(n1cnc2c(N)ncnc21)C3O (stereo not drawn)
  Fold induction of IFN-α: 1.4 fold and 6.3 fold
  Fold induction of IFN-γ: 133.2 fold and 19.1 fold
  Fold induction of TNFa: 5.1 fold and 11.5 fold
